{
  "source": "patent US9821072B2",
  "about": "“Activated neurotensin molecules and the uses thereof” (priority 2014, dated 2017)",
  "system": "FVB/N mice with KA-induced status epilepticus",
  "test": "Kainic acid-induced status epilepticus model (body temperature, seizures, neurodegeneration, neuroinflammation, mossy fiber sprouting)",
  "assay_type": "in vivo, mouse",
  "conditions": "administered 30 min after SE onset",
  "text": "In the present case, excitotoxicity was induced by subcutaneous (s.c.) injection of kainic acid (KA), a pro-convulsant agent known to induce a status epilepticus (SE) with excitotoxicity, neuroinflammation, and severe neuronal damage in the hippocampus that can be observed 3 to 7 days after KA administration, and with aberrant axonal sprouting of the dentate gyrus mossy fibers that can be observed at 7-8 weeks after KA administration. We tested the effect of compound XIV on i) epileptic activity (persistence of recurrent seizures), ii) neurodegeneration, neuroinflammation and the resulting brain tissue damage and iii) aberrant axonal sprouting of the dentate gyrus mossy fibers.\nFVB/N adult male mice were injected with a single dose of KA (40-45 mg/kg s.c.) to generate mice with spontaneous recurrent seizures as a hallmark of SE. A negative control group of mice were administered saline 0.9% instead of KA and no further treatment (“SHAM”, n=5). Thirty minutes after the onset of SE, mice received either an intravenous (tail vein) bolus injection of compound XIV at the dose of 4 mg/kg eq. NT (treatment group “SE+HT”, n=5) or saline 0.9% (group “SE”, n=5), or a high dose of diazepam (DZP) at 15 mg/kg), a potent anti-convulsive and anti-epileptic drug (positive control group “SE+DZP”). Body temperature was monitored before KA injection and then every 15 min during 6 hours thereafter, using a rectal probe. During this period, mice were assessed for the occurrence and severity of motor seizures. One week later, animals were sacrificed for histological assessment of neuronal cell death on coronal sections, the hippocampal formation being the main structure in the brain showing tissue damage in this model of excitotoxicity. Another group of animals with the same treatments was sacrificed 8 weeks for histological assessment of aberrant axonal sprouting of the dentate gyrus mossy fibers.\nAdministration of KA (40-45 mg/kg; s.c.) caused characteristic sequential behavioral changes. Immediately after being injected, all animals developed immobility (stage 1). Within 30 minutes after KA injection, automatisms with head nodding, forelimb clonus and circling behavior (stages 2-3) were observed. Then most animals progressed to intermittent (stage 4) followed by continuous (stage 5) rearing with forelimb clonus and falling behavior. […] Only animals attaining at least Racine stage 5 seizures were included in the study. The SE occurred around 2 hours after KA injection, was characterized by stage 5-6 seizures and often associated with hyperthermia (FIG. 13A). Compound XIV administered 30 min after SE onset (SE30) invariably led to transient hypothermia (FIG. 13A), which persisted at least 2 hrs. Mean decreases in body temperature (BT) of −2.5° C. and −3.6° C. were respectively recorded for SE30+ compound XIV animals as compared to SE animals (F=52.34; ***P<0.001). […] SE30+ compound XIV animals presented an average of stage 2 seizures or fewer during the rest of experiment. A subset of animals was administered i.p. a high dose of diazepam (DZP). […] Thus, administration of compound XIV at the dose of 4 mg/kg eq. […] This effect correlated with a −3 to −6° C. decrease in body temperature during ˜2.5 hours. […]\nSE-induced gliosis involved microglia and astroglial cell types. […] In SHAM animals, a basal labeling for GFAP and Iba1 was detected in the HF (FIG. 14A, panel D). […]",
  "note": "At least one peptide structure holds a part that was inferred or is arguable (an end, a ring closure or a residue).",
  "data": [
    {"smiles": "CC[C@H](C)[C@H](NC(=O)[C@H](Cc1ccc(O)cc1)NC(=O)[C@@H]1CCCN1C(=O)[C@H](CCCNC(=N)N)NC(=O)[C@@H](N)CCCNC(=N)N)C(=O)N[C@@H](CC(C)C)C(=O)O", "note": "[NT(8-13), RRPYIL]", "values": [
      {"measurement": "effect on body temperature (BT) compared with SE animals", "value": "No significant variations"},
      {"measurement": "glial inflammatory response in the hippocampus (GFAP, Iba1) compared with SE animals", "value": "no changes were observed"},
      {"measurement": "seizure intensity compared with SE group", "value": "No significant variations"},
      {"measurement": "number of mossy fiber terminals innervating the IML (ZnT3) compared with SE animals", "setting": "8 weeks after SE", "value": "not significantly changed"},
      {"measurement": "neurodegeneration in the hippocampus (NeuN, Fluoro-jade C) compared with SE animals", "setting": "one week later", "value": "no changes were observed"}
    ]}
  ]
}
